{
  "sequences": {"note": "Chains of the proteins cited; added tags and fusions are not shown.", "UniProt P18054, whole entry, looked up": "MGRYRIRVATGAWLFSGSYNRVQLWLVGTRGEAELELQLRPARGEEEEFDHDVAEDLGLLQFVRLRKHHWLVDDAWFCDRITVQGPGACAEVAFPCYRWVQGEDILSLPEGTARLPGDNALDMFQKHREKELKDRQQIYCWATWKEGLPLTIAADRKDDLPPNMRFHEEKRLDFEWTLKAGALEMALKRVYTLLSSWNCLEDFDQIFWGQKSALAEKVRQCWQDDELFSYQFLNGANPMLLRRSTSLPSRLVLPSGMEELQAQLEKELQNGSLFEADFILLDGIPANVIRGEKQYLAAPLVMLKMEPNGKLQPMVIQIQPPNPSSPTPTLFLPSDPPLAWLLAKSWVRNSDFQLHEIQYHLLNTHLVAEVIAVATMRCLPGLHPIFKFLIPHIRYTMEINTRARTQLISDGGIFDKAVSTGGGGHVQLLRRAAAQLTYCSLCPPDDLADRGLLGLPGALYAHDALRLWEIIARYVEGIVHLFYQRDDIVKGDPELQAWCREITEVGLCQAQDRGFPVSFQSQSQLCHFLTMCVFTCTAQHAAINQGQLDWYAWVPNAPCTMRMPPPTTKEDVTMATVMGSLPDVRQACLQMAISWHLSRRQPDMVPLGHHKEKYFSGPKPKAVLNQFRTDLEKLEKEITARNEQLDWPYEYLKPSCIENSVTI"},
  "source": "PubChem BioAssay AID1671190",
  "about": "(National Center for Advancing Translational Sciences (NCATS), 2021)",
  "note": "Several values for one entry are separate records, joined by “and”; a condition that tells them apart may be missing. Equal values may be shown once. Among all 580,000 compounds or so, about 6,100 (1.1%) were called active. Inconclusive results, whose numbers are uncertain, are shown with a selection of clear calls. Calls follow the shape of the dose curve; as a rule, active = well fitted inhibition curve with a large enough effect; inconclusive = small, poorly fitted or top-dose-only effect, or another doubt; inactive = no such curve, though single readings can be large or run the other way. Where the call is inconclusive, the potency comes from a doubtful curve fit. % is scaled to controls: 0 for no effect and ±100 for the full control effect; potency is read from the fitted curve at half-maximal effect.",
  "data": [
    {"biological_target": "Polyunsaturated fatty acid lipoxygenase ALOX12 (Homo sapiens) (UniProt P18054)", "test": "Primary qHTS assay for inhibitors of human arachidonate 12S-lipoxygenase (ALOX12): Round 2", "details": "purified 12hLO, xylenol orange hydroperoxide absorbance; activity change, negative = inhibition: at 108 µM (top of the series) unless noted", "how_it_was_run": "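Purified human 12hLO (150 nM final) in 25 mM Hepes, 0.01% Triton X-100, pH 7.0 was preincubated 15 min at room temperature with compound. Then 40 uM arachidonic acid was added, 30 min. Hydroperoxide was read by Fe-XO absorbance ratio 573/405 nm.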", "values": [
      {"compound": "CC(C)c1ccc(-c2cc(=O)c3cc(NC(=O)CCc4cc(Cl)no4)ccc3o2)cc1", "Potency": "inconclusive: 25.1 µM [inhibitor, partial curve, poor fit]"},
      {"compound": "Cc1cc(C)cc(C(=O)N2CCCC(n3cc(-c4nc(C)no4)nn3)C2)c1", "note": "(centres undefined)", "activity change, negative = inhibition": "inactive: -3.99%"},
      {"compound": "CCc1ccc(C(=O)NNc2ccc(C)c(Cl)c2)cc1", "Potency": "active: 15.8 µM"},
      {"compound": "Cc1csc(NC(=O)COc2cccc3ccccc23)n1", "activity change, negative = inhibition": "inactive: 5.62%"},
      {"compound": "O=c1ccc2c(ccc3ncccc32)o1", "Potency": "inconclusive: 126 µM [inhibitor, single point]"},
      {"compound": "Cc1nc(-c2cccs2)c(CCC(=O)N2CCN(c3ccc(F)cc3)CC2)s1", "Potency": "inconclusive: 35.5 µM [inhibitor, partial curve, poor fit]"},
      {"compound": "O=C(/C(=C/O)N=Nc1ccccc1)c1ccc(Cl)cc1", "Potency": "inconclusive: 39.8 µM [inhibitor, partial curve, poor fit]"},
      {"compound": "CCc1ccc(NC(=O)CSc2ncc(S(=O)(=O)c3cc(C)ccc3C)c(=O)[nH]2)cc1", "Potency": "inconclusive: 50.1 µM [inhibitor, partial curve, poor fit]"},
      {"compound": "CCCCCNC(=O)C(c1cc2ccccc2o1)n1c(=O)c(-c2ccco2)nc2ccccc21", "note": "(centres undefined)", "Potency": "active: 39.8 µM"},
      {"compound": "N/C(=N\\OC(=O)c1cc(Br)ccc1Cl)c1cccnc1", "Potency": "inconclusive: 35.5 µM [inhibitor, partial curve]"},
      {"compound": "O=C(O)Cc1cn(-c2ccccc2)nc1-c1ccc(Cl)cc1", "Potency": "inconclusive: 100 µM [inhibitor, single point]"},
      {"compound": "CCC(C)NC(=O)c1ccccc1-c1ncc(-c2ccccc2F)o1", "note": "(centres undefined)", "activity change, negative = inhibition": "inactive: 4.65%"},
      {"compound": "CCC(=O)N(C1CCOCC1)C1CCN(Cc2cccc(Br)c2)CC1", "activity change, negative = inhibition": "inactive: 18.6%"},
      {"compound": "Cc1cc(C(=O)NCCCn2ccnc2)sc1-c1ccccc1", "activity change, negative = inhibition": "inactive: -5.4%"},
      {"compound": "O=C(C1=C[C@H](c2ccc(C(F)(F)F)cc2)C[C@H](OCc2ccc(CO)cc2)O1)N1CCN(Cc2ccccc2)CC1", "Potency": "inconclusive: 35.5 µM [inhibitor, partial curve, poor fit]"},
      {"compound": "Cc1ccc(C(=O)C2=C(O)C(=O)N(Cc3ccccc3)C2c2cccnc2)o1", "note": "(centres undefined)", "Potency": "inconclusive: 3.98 µM [inhibitor, full curve, poor fit]"},
      {"compound": "COCc1cc(C[C@@H]2CC[C@H](O)[C@@H](CNCc3ccccc3Cl)O2)no1", "activity change, negative = inhibition": "inactive: 26.2% [at 176 µM]"},
      {"compound": "CCn1cc(C(=O)O)c(=O)c2cc(F)c(N3CCN(C(=S)NC(=O)c4ccc(Br)cc4)CC3)cc21", "activity change, negative = inhibition": "inactive: -17.2%"},
      {"compound": "O=[N+]([O-])c1ccccc1/C=C/CN1CCSCC1", "activity change, negative = inhibition": "inactive: -35.1%"},
      {"compound": "O=c1oc2ccccc2c(=O)c2ccccc12", "Potency": "inconclusive: 7.08 µM [inhibitor, full curve, poor fit]"},
      {"compound": "O=C(CN1C(=O)C2C3C=CC(C3)C2C1=O)Nc1nc(SCc2ccc(Cl)cc2)n[nH]1", "note": "(centres undefined)", "Potency": "inconclusive: 79.4 µM [inhibitor, single point]"},
      {"compound": "CCCCn1c(N)c(N(CCOC)C(=O)c2cc3c(s2)CCC(C)C3)c(=O)[nH]c1=O", "note": "(centres undefined)", "Potency": "inconclusive: 20 µM [inhibitor, partial curve, poor fit] and inconclusive: 112 µM [inhibitor, partial curve, poor fit]"},
      {"compound": "NC(=O)NNC(=S)NC12CC3CC(CC(C3)C1)C2", "Potency": "inconclusive: 35.5 µM [inhibitor, partial curve, poor fit]"},
      {"compound": "CC(C)CNc1nc(-c2ccc3c(c2)CCCN3S(C)(=O)=O)cs1", "Potency": "active: 14.1 µM"},
      {"compound": "COc1ccccc1CNC(=O)C(C)N1CCC(c2nc3cc(Cl)ccc3s2)CC1", "note": "(centres undefined)", "Potency": "inconclusive: 50.1 µM [inhibitor, partial curve, poor fit]"},
      {"compound": "CN(C)CCCNc1ncnc2c1c(-c1ccccc1)cn2-c1ccccc1", "Potency": "inconclusive: 112 µM [inhibitor, single point]"},
      {"compound": "CC(NC(=O)C(=O)C1C(=O)Nc2ccccc21)C(=O)O", "note": "(centres undefined)", "Potency": "inconclusive: 0.794 µM [inhibitor, full curve]"},
      {"compound": "CCOc1cccc(CNc2ccc(O)cc2)c1OCc1ccc(Cl)cc1", "Potency": "inconclusive: 35.5 µM [inhibitor, single point]"},
      {"compound": "O=C(COc1ccccc1)NC(NC(=S)Nc1ccccc1C(=O)O)C(Cl)(Cl)Cl", "note": "(centres undefined)", "Potency": "inconclusive: 50.1 µM [inhibitor, partial curve, poor fit]"},
      {"compound": "COc1cc(C(C(=O)NC2CCCCC2)N(C(=O)Cc2c[nH]c3ccccc23)c2ccccc2C)cc(OC)c1OC", "note": "(centres undefined)", "activity change, negative = inhibition": "inactive: -15.5%"},
      {"compound": "Cc1cccc(-n2c(-c3csc(C(C)C)c3)n[nH]c2=S)c1", "Potency": "inconclusive: 44.7 µM [inhibitor, partial curve, poor fit]"},
      {"compound": "CN(C)c1ccc(/C=C/C=C2/SC(=S)N(c3ccccc3)C2=O)cc1", "Potency": "inconclusive: 89.1 µM [inhibitor, single point]"},
      {"compound": "COC(=O)c1ccccc1NC(=O)C1CCCN(c2nnc(C)c3c(C)n(-c4ccccc4)nc23)C1", "note": "(centres undefined)", "activity change, negative = inhibition": "inactive: 2.31%"},
      {"compound": "CCOC(=O)C1=C[C@@H](C(C)(C)C)N(S(=O)(=O)c2ccc(OC)cc2)[C@H]1c1ccccc1", "activity change, negative = inhibition": "inactive: 9.59%"},
      {"compound": "Cc1ccc(Cl)c(OCC(=O)Nc2sc3c(c2C(=O)N2CCOCC2)CCCC3)c1", "activity change, negative = inhibition": "inactive: -0.11%"},
      {"compound": "O=NN(CCCl)C(=O)NC1CCCCC1", "Potency": "inconclusive: 21.7 µM [inhibitor, partial curve]"},
      {"compound": "COc1ccc(CN2C(=O)c3cccnc3C2=O)cc1S(=O)(=O)NCc1ccc(C)cc1", "activity change, negative = inhibition": "inactive: 12%"},
      {"compound": "COC(=O)c1c(NC(=O)c2ccc(S(=O)(=O)N(C)C3CCCCC3)cc2)sc2c1CCN(C)C2", "Potency": "inconclusive: 141 µM [inhibitor, single point]"},
      {"compound": "COc1cc(C)cc2oc(=O)c(CC(=O)NC3CCCCCC3)c(C)c12", "Potency": "inconclusive: 44.7 µM [inhibitor, partial curve, poor fit]"},
      {"compound": "CCn1cc(C(=O)O)c(=O)c2cnc(N3CCN(C(=S)NC(=O)c4ccc(OC)cc4)CC3)nc21", "Potency": "inconclusive: 44.7 µM [inhibitor, partial curve, poor fit]"},
      {"compound": "CC(C)=CCC/C(C)=C/COc1c2occc2cc2ccc(=O)oc12", "Potency": "inconclusive: 112 µM [inhibitor, single point] and inconclusive: 89.1 µM [inhibitor, partial curve, poor fit]"},
      {"compound": "COc1cnc(NS(=O)(=O)c2ccc(N)cc2)nc1", "Potency": "inconclusive: 2.73 µM [inhibitor, partial curve, poor fit]"},
      {"compound": "CCCOC(=O)c1c(NC(=O)C2C3C=CC(C3)C2C(=O)O)sc2c1CCC(C)C2", "note": "(centres undefined)", "Potency": "inconclusive: 50.1 µM [inhibitor, partial curve, poor fit]"},
      {"compound": "O=C1N[C@@H]2CCN(S(=O)(=O)Cc3ccccc3)[C@@H]2C(=O)N1c1ccc(F)cc1", "Potency": "inconclusive: 112 µM [inhibitor, partial curve, poor fit]"},
      {"compound": "CCOc1ccccc1Nc1nc(-c2ccccc2)cs1", "Potency": "inconclusive: 112 µM [inhibitor, partial curve, poor fit]"},
      {"compound": "O=C(c1ccc(Cl)cc1)N1CC2(CCN(CC3CC3)CC2)Cc2ccccc21", "activity change, negative = inhibition": "inactive: 2.65% [at 6.33 µM]"},
      {"compound": "COc1ccc(CN2CCN(Cc3ccc4cc(F)ccc4n3)CC2CCO)c(C)c1C", "note": "(centres undefined)", "Potency": "inconclusive: 35.5 µM [inhibitor, partial curve]"},
      {"compound": "O=C(COC(=O)c1ccc(N2CCCC2=O)cc1)Nc1ccccc1", "activity change, negative = inhibition": "inactive: 0.453%"},
      {"compound": "O=C(O)C/C(=C/c1csc(-c2ccc(F)cc2)n1)c1nc2ccccc2s1", "Potency": "inconclusive: 39.8 µM [inhibitor, partial curve, poor fit]"},
      {"compound": "COc1ccccc1-c1cnc(Nc2cccc(N[S+](C)(=O)[O-])c2)c2c1CCO2", "activity change, negative = inhibition": "inactive: -6.5% [at 176 µM]"},
      {"compound": "O=C(NCCCCCCCN1CCCCCCC1)C(C1CCCCC1)C1CCCCC1", "Potency": "inconclusive: 158 µM [inhibitor, single point]"},
      {"compound": "CCOc1ccc(-c2cc(C(=O)O)c3ccccc3n2)c(OCC)c1", "Potency": "inconclusive: 20 µM [inhibitor, full curve, poor fit]"},
      {"compound": "COc1cccc(-c2nc(-c3ccc4c(c3)CCC4)cs2)c1OC", "Potency": "inconclusive: 44.7 µM [inhibitor, full curve, poor fit]"},
      {"compound": "OCCNCc1cc(Br)ccc1OCc1ccc(Cl)cc1Cl", "activity change, negative = inhibition": "inactive: -20.3%"},
      {"compound": "O=C(c1ccccc1)N1CCN(C(=S)NCc2ccco2)CC1", "Potency": "inconclusive: 100 µM [inhibitor, single point]"},
      {"compound": "COc1cc(NC(=O)CC[C@H]2O[C@@H](n3cnc4c(NC(=O)c5ccccc5)ncnc43)[C@H](O)[C@@H]2O)cc(OC)c1OC", "Potency": "inconclusive: 50.1 µM [inhibitor, partial curve, poor fit]"},
      {"compound": "CCCOc1ccc(C2=CSC3=NCCN23)cc1[N+](=O)[O-]", "activity change, negative = inhibition": "inactive: 21.8%"},
      {"compound": "CCc1cc2c(-c3ccccc3)cc(=O)oc2c(CN2CCOCC2)c1O", "Potency": "inconclusive: 35.5 µM [inhibitor, single point]"},
      {"compound": "Oc1ccc2ccccc2c1/C=C/c1ccc2c(Br)cc(Br)c(O)c2n1", "Potency": "inconclusive: 39.8 µM [inhibitor, partial curve, poor fit]"},
      {"compound": "CN=c1sc(C(=O)Nc2cccc(Cl)c2)cc(=O)n1C", "Potency": "inconclusive: 1 µM [inhibitor, full curve, poor fit]"},
      {"compound": "COC(=O)C1=C(C)N(Cc2ccc(Cl)cc2)C(=S)NC1c1ccc(Cl)cc1", "note": "(centres undefined)", "Potency": "active: 31.6 µM"},
      {"compound": "Cc1ccccc1NC(=O)C(=Cc1ccc(C(=O)O)cc1)C(=O)Nc1ccccc1C", "activity change, negative = inhibition": "inactive: -12.1%"},
      {"compound": "COCCNS(=O)(=O)c1cc(C(=O)O)cc(-c2ccc(N(C)C)nc2)c1", "Potency": "inconclusive: 12.6 µM [inhibitor, partial curve, poor fit]"},
      {"compound": "O=C(CCc1cc2n(n1)CCCNC2)NC1CCCN(c2ncccn2)C1", "note": "(centres undefined)", "Potency": "inconclusive: 7.94 µM [inhibitor, full curve]"}
    ]}
  ]
}
